Like-named read-outs stand apart in the source and are kept apart here. Results are given in words; binding and its absence hold for the method and conditions named. Binding seen in cells or lysates may run through a third protein. Some results given as binding are weak or reduced against the parent protein; the word gives no strength. For part of these data: Sequences can lack the tags named with a protein.

The chains behind the UniProt entries cited, without tags or fusion partners.
UniProt P43138: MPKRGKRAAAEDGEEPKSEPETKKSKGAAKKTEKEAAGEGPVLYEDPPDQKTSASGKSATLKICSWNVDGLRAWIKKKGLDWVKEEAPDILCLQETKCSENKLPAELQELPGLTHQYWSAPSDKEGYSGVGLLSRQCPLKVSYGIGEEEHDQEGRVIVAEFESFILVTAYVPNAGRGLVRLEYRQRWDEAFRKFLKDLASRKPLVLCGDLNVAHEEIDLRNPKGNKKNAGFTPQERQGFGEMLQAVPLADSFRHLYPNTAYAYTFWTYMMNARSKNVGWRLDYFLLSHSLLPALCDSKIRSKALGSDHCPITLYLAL
UniProt P27695: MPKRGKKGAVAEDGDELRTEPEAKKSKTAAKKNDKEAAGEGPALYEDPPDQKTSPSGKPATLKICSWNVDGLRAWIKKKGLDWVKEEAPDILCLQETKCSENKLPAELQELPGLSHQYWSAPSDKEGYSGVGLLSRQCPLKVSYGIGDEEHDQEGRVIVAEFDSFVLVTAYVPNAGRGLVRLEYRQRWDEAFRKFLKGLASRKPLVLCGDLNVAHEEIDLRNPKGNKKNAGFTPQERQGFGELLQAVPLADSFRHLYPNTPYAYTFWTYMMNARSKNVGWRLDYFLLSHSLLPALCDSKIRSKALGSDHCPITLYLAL
UniProt P10361: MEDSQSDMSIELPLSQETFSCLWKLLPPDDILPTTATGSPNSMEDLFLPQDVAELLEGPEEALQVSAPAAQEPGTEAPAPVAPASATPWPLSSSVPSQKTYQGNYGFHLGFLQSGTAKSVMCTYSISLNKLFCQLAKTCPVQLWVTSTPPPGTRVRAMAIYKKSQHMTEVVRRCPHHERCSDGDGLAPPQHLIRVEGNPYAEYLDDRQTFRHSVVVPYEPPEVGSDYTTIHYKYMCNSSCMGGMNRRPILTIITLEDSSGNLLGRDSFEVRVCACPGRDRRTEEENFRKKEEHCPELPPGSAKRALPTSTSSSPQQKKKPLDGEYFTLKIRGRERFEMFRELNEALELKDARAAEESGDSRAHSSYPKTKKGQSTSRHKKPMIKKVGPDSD
UniProt P52631: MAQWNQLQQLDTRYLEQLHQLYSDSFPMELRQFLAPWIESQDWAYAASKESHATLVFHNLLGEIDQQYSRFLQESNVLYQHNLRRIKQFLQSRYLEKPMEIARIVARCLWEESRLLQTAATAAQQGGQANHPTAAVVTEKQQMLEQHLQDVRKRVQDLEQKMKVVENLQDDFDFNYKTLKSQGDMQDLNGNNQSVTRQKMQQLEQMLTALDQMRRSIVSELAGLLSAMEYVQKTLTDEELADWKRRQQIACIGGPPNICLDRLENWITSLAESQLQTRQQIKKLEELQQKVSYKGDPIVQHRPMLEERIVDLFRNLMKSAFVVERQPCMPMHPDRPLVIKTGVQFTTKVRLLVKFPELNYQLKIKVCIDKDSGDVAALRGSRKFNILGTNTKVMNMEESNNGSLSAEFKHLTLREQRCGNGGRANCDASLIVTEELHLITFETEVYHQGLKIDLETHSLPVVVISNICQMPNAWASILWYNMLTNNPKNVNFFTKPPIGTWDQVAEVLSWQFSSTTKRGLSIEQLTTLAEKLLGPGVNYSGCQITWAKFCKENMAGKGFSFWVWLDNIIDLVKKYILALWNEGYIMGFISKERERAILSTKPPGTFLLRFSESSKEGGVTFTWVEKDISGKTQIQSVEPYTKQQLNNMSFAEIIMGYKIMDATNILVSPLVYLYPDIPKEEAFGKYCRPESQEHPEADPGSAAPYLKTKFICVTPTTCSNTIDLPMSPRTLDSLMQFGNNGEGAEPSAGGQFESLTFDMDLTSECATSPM

The results in this text go back to publication PMC8980952.

In experiment [1] the target is T1, Myc‐tagged human CRP (pEF1α‐myc‐hCRP) (human) (UniProt P02741).
T1 sequence: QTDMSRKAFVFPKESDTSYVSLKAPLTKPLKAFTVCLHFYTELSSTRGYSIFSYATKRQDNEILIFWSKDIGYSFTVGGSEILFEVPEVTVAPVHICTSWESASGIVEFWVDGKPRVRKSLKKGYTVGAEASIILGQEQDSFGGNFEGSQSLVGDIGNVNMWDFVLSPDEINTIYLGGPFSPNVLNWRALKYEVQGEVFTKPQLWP
Kind of experiment: co-IP; A10 cells transfected with myc-tMOCK, tMOCK, myc-tCRP, tCRP or tRef-1 for 48 h; total lysates cross-linked and immunoprecipitated by goat anti-Ref-1 or rabbit anti-myc antibodies; IB with anti-CRP, anti-Myc, anti-Ref-1 and anti-p53 antibodies.

In experiment [2] the target is Ref‐1 in Myc‐tagged CRP‐overexpressed A10 cells (rat (endogenous in A10)) (UniProt P43138). The experiment is described as above.
The target of experiment [3] is human AP‐endonuclease/Redox factor‐1 (APE/Ref‐1), overexpressed from pcDNA3.1 (human) (UniProt P27695). The experiment in a line: co-IP; A10 cells transfected with tMOCK, tCRP or tRef-1 for 48 h; total lysates cross-linked and immunoprecipitated by goat anti-Ref-1 antibody; IB with mouse anti-CRP and anti-STAT3 antibodies.
Experiment [4] deals with Ref‐1 (endogenous in human aortic VSMCs) (human (endogenous in hVSMCs)) (UniProt P27695). Kind of experiment: co-IP; total cell extracts of 8 Gy IR-exposed hVSMCs immunoprecipitated by IgG or goat anti-Ref-1 antibodies; IB with mouse anti-CRP, anti-Ref-1 and anti-STAT3 antibodies.
Experiment [5] has as its target Ref‐1 in Myc‐tagged CRP‐overexpressed A10 cells (rat (endogenous in A10)) (UniProt P43138). The experiment in a line: co-IP; A10 cells transfected with myc-tMOCK, tMOCK, myc-tCRP, tCRP or tRef-1 for 48 h; total lysates cross-linked and immunoprecipitated by goat anti-Ref-1 or rabbit anti-myc antibodies; IB with anti-CRP, anti-Myc, anti-Ref-1 and anti-p53 antibodies. This is another data set of the same source.

Turning to “p53 (endogenous in A10 rat VSMCs, induced by tCRP) (from UniProt P10361 1-391)”, the binding entry in experiment [1] and in experiment [2] was “binds” throughout.

Regarding “STAT3 (endogenous in A10 rat VSMCs) (from UniProt P52631 1-770)”, the binding result in experiment [3] is listed as “binds”.

B1: human C‐reactive protein (CRP), overexpressed from pcDNA3.1 (protein, UniProt P02741-1 19-224)
chain: T1 sequence
Turning to B1, the binding entry in experiment [3] was “binds”.

B2: IR‐induced CRP (endogenous in human aortic VSMCs) (protein, UniProt P02741 19-224)
chain: T1 sequence
Consider B2, for which the binding result in experiment [4] was “binds”.

B3: Myc‐tagged human CRP (pEF1α‐myc‐hCRP) (protein, UniProt P02741-1 19-224)
chain: T1 sequence
With B3, the binding entry in experiment [5] is “binds”.
